# Results from one PubChem assay

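Luminescence from an EWS-FLI1 target-promoter (NR0B1) reporter, set against a CMV-promoter reporter, two days after silencing single genes in TC32 Ewing sarcoma cells. Each siRNA was applied at 20 nM. A z-score of the log NR0B1-over-CMV signal, less the median of siRNAs with the same seed; more negative means a stronger specific loss of the NR0B1 reporter.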

This is part of the screen; most of the strongest results are not listed here. Sequences are the guide (antisense) strand, without overhang.

siRNA	gene	seed-corrected z-score
UUUGGGAGUACGGAUGCAC	CTGF	0.07955
UACAGGAAGAUUAUCCACC	HFE2	-0.08514
AUUUAGACAAGUCAACUAC	UACA	-1.44
UGAGUAGCGAUCCAGCUUC	KCNH2	-1.182
AUACUUCUGAUCUAGCUUG	SERPINA10	-0.5589
AAAGUGAGUGCUGCAUCUG	MMP17	0.8755
UAGUAGACAUCGCUCUUGC	MBD2	-1.224
UAUACUACCACGGUGUGCU	DCAKD	-0.3703
AUAGUUGCUAAGACAUGUC	FBXO5	-0.005017
UUGUGGAAGAUCUUGUCCC	UNC13D	-0.2191
AAACUUACAGGCCCUAUAC	LANCL1	-0.4504
AAACGUACCAGAUGGUGGU	PCED1B	-0.8451
UCAGCUUGCAGGUAUUGUC	CXCR5	-0.3289
UUUCUAACCAGUUCACAUC	GRXCR1	-0.4032
AACACUGUAUCCACUGUGC	GAB4	0.08866
AGGUGAAUUCGUAAAAUGC	LATS2	-0.0854
UAGUUGACUAGGAAGAGGC	GLTP	-0.3844
UCCAUUGUAAUUGCCCAUC	DNAJA1P4	-1.918
AAUGAAGUUAAAUCGGUCG	DCAF4L1	0.6546
UUAGGACGUAGAUAUUCCC	HYDIN	1.895
AUUGUCAUGGUGGUAAUCC	PAK7	0.7723
AUUGGUGUAAGUCCAUGCG	KCNH7	1.976
UUUGUAACUCUCUUUGCUG	RPL22P11	0.01742
AACACUAACAGAUAAACGG	WASF1	0.7596
AUAACCACCAGAUAUACGG	PLOD2	0.2887
UUAACUACAGCAUCAUCUC	NEDD1	0.09585
UGAACUCUAAGGAGGAGCC	CASP6	0.0181
UAACCUGUCCGUUGACUCC	PCDHA7	-0.2925
UCUUUGGUUACAAUAAACA	PPCS	0.7209
AUUGAUGUCAAUGAUAGUC	ADAMTS5	0.06904
UAAGAUUGUAUAGAGUACC	SLFN14	0.1642
UAAUCGCUGAGCAAUCUUC	PRPF3	-0.9672
UGAGUCCACAAAGCAUCCC	KREMEN2	-0.6295
AUAUAUUCUCAUCUUAUUC	MAGEB3	1.334
UUUUCUGUGAAUAUCAGCC	TCP10	1.025
UUUUUAUACCGGAUUCUUU	PBX4	1.089
AAAGGUAAUAGGGACGGUA	MAGEC1	-1.431
UGAAUUGCUCGUUCUAUUU	BOD1	0.967
UUUGAUUGAUGUCCUAUUC	PSMD5	0.5243
UAAUGGGCAAUAUUAACUC	NRXN2	0.4913
UCCCAUAUACUUUUUCUGG	COX6A1	0.409
UUGAUGAUUAUUGAGAGUC	ZNF157	-0.0307
UAUCACGAAAUCCAAAUCC	ZCCHC11	0.2818
AUUGCUAGAAAAAUCUCCC	FRMD4A	-0.01618
UCAGGGAUAAAGAUCCACC	ACSM6	-0.07337
AAAUCGACUAUUCACCAUC	PCSK1	0.1762
AUCCGGUCUUUGAUGAUGC	KCTD17	-0.3751
UGAUCAUUAGUGCUAAUGC	ZSWIM8	0.6237
AAAACGUAAACCAUGAUCC	SLC13A1	0.01689
AGAUGCUUCACUGUGACCC	RRBP1	-1.462
AAAUAGUACACGUGGACUC	SULT1E1	-0.4056
UCUAUAUCAACAUCCAGUU	ANKRD45	-0.3324
UACAGUCUCCUCAAAGCUC	SLC1A6	1.299
UAUCAAACCCUUCCAAAGC	DCT	0.4818
UUCCUUGUUACGAAGACUG	OR6N2	-0.7633
UGUAGUACGUGCCUUGCUG	FAM168B	-0.5852
UUUGGGAUGGGCUGGGUUG	PDK2	0.418
AAAGCUACCAAUAACAGAG	SLC44A3	0.5688
UAUGGGAGUUCCAUUUUGC	BTNL8	-0.2243
UUGGGAUAGAAUGGAAUGG	FBXO7	1.056
UUCGGCACAUGAGAUACGU	HRCT1	1.32
AUAUAUAACGUAACCUUGC	RPL15P3	-1.913
UCUAUGGGCCCGAAUAUUC	RPS18P12	-0.4653
UUCCGGUAUCUCUUCCUUC	TM6SF2	0.06201
UUCUGGAUUUGUUCAAAAG	SYT1	0.04175
UUAAACUUAAACUUCAGAG	PDZD3	-0.002541
UACAAUCUCAUUCAAAAUG	SLC1A2	0.2914
UCAAUAAGAAGCCUCACAC	ASB13	0.4835
AAAUAUCCCAGGUGUUCGC	SOHLH2	0.1635
UCUACCUCCAUGGUGUAUG	MYO5B	-0.341
UUCGGUUUAUAUCCCUUUC	GPBP1	-1.171
UGUUGUUUACGCGCUGCGC	FAM69C	2.338
AUCGAGAAGAGAUUCCUUG	SEPP1	-0.9101
AAGAGUUCCAGCAUAUGGG	OR4C46	-0.5349
UAUUCUCCUGCUAGGGUUC	SIT1	1.653
UUAAGUUGUGAGUCAGUCC	ZNF527	-0.9945
UCCACUGUAGAGACUAUCC	SAMSN1	0.4628
UCAUAGAUUAGGUAAUCAG	FAM120B	-0.04765
UUCCGUCAAAAAUAUCUCC	ZFHX3	0.6846
UCAAGUCCCAAAAUGUUGC	TP53I3	0.26
AUCGCUUUAGGUGCUAUCC	GPATCH1	0.4826
UUCAGACUGACGUCGAUCU	ERGIC1	0.01923
AUUCGUUUGAUUAGGGUCC	PDE8A	0.6745
UAAACAGGAAAUAGGACUC	C22orf46	-1.083
UAAGUGGUCAUAAUAGACU	PHLDB3	-0.3282

For reference, 7 entries once more:

siRNA,gene,seed-corrected z-score
AUUGUCAUGGUGGUAAUCC,PAK7,0.7723
UGUUGUUUACGCGCUGCGC,FAM69C,2.338
AUUUAGACAAGUCAACUAC,UACA,-1.44
UUUCUAACCAGUUCACAUC,GRXCR1,-0.4032
UACAGUCUCCUCAAAGCUC,SLC1A6,1.299
UUGAUGAUUAUUGAGAGUC,ZNF157,-0.0307
UGAGUCCACAAAGCAUCCC,KREMEN2,-0.6295

The results are deposited in PubChem (AID1159506; NCATS, 2015).